The values that follow come from publication PMC5014551.

The chains behind the UniProt entries cited, without tags or fusion partners. Residues count along the entry.
UniProt Q6P4F2, residues 53-183: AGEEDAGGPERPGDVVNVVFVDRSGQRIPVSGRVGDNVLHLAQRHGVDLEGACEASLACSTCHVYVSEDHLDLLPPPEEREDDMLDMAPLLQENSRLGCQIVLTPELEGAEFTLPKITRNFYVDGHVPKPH

Test [1] concerns the target T1, recombinant human BOLA1, fluorescently labelled (human) (UniProt Q9Y3E2).
T1 sequence (chain, NT-647 dye (Monolith NT Protein Labeling Kit RED)): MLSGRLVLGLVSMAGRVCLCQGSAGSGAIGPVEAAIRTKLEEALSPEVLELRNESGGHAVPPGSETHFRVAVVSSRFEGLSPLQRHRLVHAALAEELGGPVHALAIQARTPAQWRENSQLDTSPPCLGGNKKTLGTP
Put plainly: condition: 200 µM (highest concentration of the titration, methods); MST; 200 nM NT-647 labelled protein titrated with unlabelled protein from 200 µM to 6.1 nM; 50 mM KPi pH 7.4, 150 mM NaCl, 5% glycerol, 0.05 mg/mL BSA, 0.05% Tween20; 21°C; anaerobic; both purified.

The target in test [2] is T2, recombinant human BOLA3, fluorescently labelled (human) (UniProt Q53S33).
T2 sequence (chain, NT-647 dye (Monolith NT Protein Labeling Kit RED)): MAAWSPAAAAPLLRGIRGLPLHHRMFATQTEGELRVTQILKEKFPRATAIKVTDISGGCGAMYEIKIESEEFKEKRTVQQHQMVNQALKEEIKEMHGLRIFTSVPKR
Described as above.

No constants are given. Whether binding was seen depends on the method and setting.

For “human [2Fe-2S] ferredoxin FDX2 (from UniProt Q6P4F2 53-183)”, the binding result in test [1] and in test [2] was “no binding” in each case.
